Taken from: PubChem BioAssay AID652259 (Drosophila RNAi Screening Center, 2013)

Screen: 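Genome-wide hunt for genes that control Wingless pathway activity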 (primary screen)
System: Drosophila clone 8 imaginal disc epithelial cells
Reagents: long dsRNA against Drosophila genes
Challenge: pathway stimulated by co-transfected Wingless expression plasmid
Measured: 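Firefly luciferase from a tcf-site Wingless reporter, measured alongside co-transfected Renilla luciferase that tracks transfection; pathway stimulated by a Wingless plasmid; the firefly-to-Renilla ratio is not deposited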
Reading the numbers: firefly reporter light: higher = more Wg reporter light, before normalisation; Renilla control light: higher = more transfected or surviving cells
Call rule: 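a knock-down is a candidate when at least two out of four statistical tests show it departing from its plate mean; one test alone signals a weak candidate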
Calls: active = candidate regulator (raises or lowers reporter); inactive = not a candidate
The screen tested about 22,000 reagents; below is a random part of those with a known target gene and a result. Over the whole deposit, 233 (1.1%) are marked active. 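Light values are raw, unnormalised plate reads; the ratio scores behind the reporter calls were not deposited.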 A plus sign joins genes that one reagent is predicted to hit. No sequences are given here. Not given: the amount of reagent, the time to read-out, the dose of the treatment.

The first 2 records, ahead of the listing:
lili [DRSC14143] → firefly reporter light, replicate 1 = 2448; firefly reporter light, replicate 2 = 5760; Renilla control light, replicate 1 = 1127; Renilla control light, replicate 2 = 1864; Outcome = inactive
mRpL20 [DRSC09828] → firefly reporter light, replicate 1 = 6901; Renilla control light, replicate 1 = 3169; Outcome = inactive

Main list, repeating the preview:
lili [DRSC14143] → firefly reporter light, replicate 1 = 2448; firefly reporter light, replicate 2 = 5760; Renilla control light, replicate 1 = 1127; Renilla control light, replicate 2 = 1864; Outcome = inactive
mRpL20 [DRSC09828] → firefly reporter light, replicate 1 = 6901; Renilla control light, replicate 1 = 3169; Outcome = inactive
resilin [DRSC05627] → firefly reporter light, replicate 1 = 15162; Renilla control light, replicate 1 = 11500; Outcome = inactive
resilin [DRSC06595] → firefly reporter light, replicate 1 = 9244; Renilla control light, replicate 1 = 2816; Outcome = inactive
CG12477 [DRSC09886] → firefly reporter light, replicate 1 = 4643; Renilla control light, replicate 1 = 2101; Outcome = inactive
ich [DRSC12715] → firefly reporter light, replicate 1 = 2567; Renilla control light, replicate 1 = 1177; Outcome = inactive
ich [DRSC14448] → reporter change call, replicate 1 = Wg reporter activity lowered; firefly reporter light, replicate 1 = 7302; Renilla control light, replicate 1 = 3428; Outcome = active
dgt4 [DRSC18659] → firefly reporter light, replicate 1 = 13810; Renilla control light, replicate 1 = 5821; Outcome = inactive
CG4456 + Hsp22 [DRSC11187] → firefly reporter light, replicate 1 = 7241; Renilla control light, replicate 1 = 2676; Outcome = inactive
CG4456 + Hsp22 [DRSC11192] → firefly reporter light, replicate 1 = 9526; Renilla control light, replicate 1 = 2780; Outcome = inactive
CG7744 [DRSC07036] → firefly reporter light, replicate 1 = 8935; Renilla control light, replicate 1 = 3280; Outcome = inactive
grim [DRSC11352] → reporter change call, replicate 1 = Wg reporter activity raised; firefly reporter light, replicate 1 = 9920; Renilla control light, replicate 1 = 1081; Outcome = active
